Laboratory results reported in PubChem BioAssay AID2685 (National Center for Advancing Translational Sciences (NCATS), 2010).
Some of the results follow. The main result of the screen is listed elsewhere. These columns were measured beside it and carry no call. The list favours compounds with an active or inconclusive main result. Potencies come from curve fits of mixed quality, noted in brackets.

Test: qHTS Assay for Lipid Storage Modulators in Drosophila S3 Cells;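 as to cell number change: cells counted by Cell Tracker Red CMTPX staining in the red channel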
Conditions: BODIPY lipid droplet fluorescence, 18-24 h; for cell number change: measured here: cell count max response, cells fed with added oleic acid
Summary of the method: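 Drosophila S3 cells loaded with oleic acid (400 uM, as added) and compounds at several concentrations; lipid droplets imaged by 488-nm laser-scanning cytometry, 500–530 nm intensity and object ratio to cell channel. Percent activity normalized to 20 uM Triacsin C.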

[1] = measured here: lipid fluorescence (Fed channel) AC50, cells fed with added oleic acid
[2] = measured here: cell number channel AC50, cells fed with added oleic acid

| SMILES | cell number change | AC50 [1] | AC50 [2] |
| --- | --- | --- | --- |
| O=C(Nc1cccc(NC(=O)C2CCCO2)c1)C1CCCO1 (centres undefined) | 6.47% | 0.092 µM [rising, full curve] | – |
| COc1ccc(NC(=S)N2CCC(Cc3ccccc3)CC2)cc1OC | – | 29.1 µM [falling, single point] | – |
| O=C(Nc1ccc(Cl)c(Cl)c1)OCc1cnc(Cl)s1 | -55.4% | – | 23.1 µM [falling, single point] |
| CSc1nc(Cc2ccc(Cl)cc2)nc2ccccc12 | -13.3% | 9.2 µM [falling, partial curve] | – |
| CC(Oc1ccc(Cl)cc1Cl)C(=O)Nc1ccncc1 (centres undefined) | -21.8% | 29.1 µM [falling, single point] | – |
| Nc1cc(C(F)(F)F)cc([N+](=O)[O-])c1N | – | 16.4 µM [rising, partial curve] | – |
| COc1cc(Br)c(CN2C(=O)NC3(CCCCCC3)C2=O)cc1OC | -9.46% | – | – |
| COc1cc(NC(=O)NCCN2CCN(c3ccc(Cl)cc3)CC2)ccc1C | -20.5% | – | – |
| CCOc1ccc(S(=O)(=O)Nc2cccc(C)c2)c2cccnc12 | -2.11% | 0.651 µM [rising, single point] | – |
| O=C(NCCCNC(=O)c1cnccn1)c1ccc(Cl)cc1 | -6.31% | – | – |
| CC1CC(C)CN(C(=O)COC(=O)CCc2nc3ccccc3c(=O)[nH]2)C1 (centres undefined) | -1.93% | – | 0.731 µM [rising, single point] |
| COc1cc2c(C(=O)NCCCN3CC(C)CC(C)C3)cn(CC(C)C)c(=O)c2cc1OC (centres undefined) | 14.2% | 18.4 µM [falling, partial curve] | – |
| CCCc1cc(=O)[nH]c(SCC(=O)Nc2cccc3ccccc23)n1 | 9.91% | 29.1 µM [rising, single point] | – |
| Cc1nc(NC(=O)CSc2nnc(C3CC3)n2C)sc1C | -12.4% | – | – |
| CCOc1cc(NC(=S)NCCCN2CCOCC2)c(OCC)cc1NC(=O)c1ccco1 | 1.39% | – | – |
| O=C(CSc1nnc(NC2CC2)s1)Nc1ccc(N2CCOCC2)cc1 | 20.7% | 1.84 µM [rising, partial curve, poor fit] | – |
| Cc1c(C(=O)N(C)c2cccc(Cl)c2)cnn1-c1ccccc1 | 10.9% | – | – |
| COc1ccc(CCN=c2c([N+](=O)[O-])nn(-c3cccc(C)c3)n2O)cc1OC | 19.2% | 1.03 µM [rising, full curve, poor fit] | 0.92 µM [rising, full curve, poor fit] |
| CC1=[N+](C)N(c2ccccc2)C(=O)C1N=Cc1ccccc1Cl (centres undefined) | 36.1% | 4.11 µM [rising, full curve, poor fit] | 11.6 µM [rising, single point] |
| CCCCCCSc1ccc([C@H]2N[C@@](CC(C)C)(C(=O)OC)[C@H]3C(=O)N(CC)C(=O)[C@@H]23)cc1 | 18.1% | 2.91 µM [rising, partial curve] | – |
| CSc1nc(N)n2nc(-c3ccccc3)cc2n1 | 15.2% | 1.3 µM [rising, full curve, poor fit] | – |

| SMILES | cell number change | AC50 [1] | AC50 [2] |
| --- | --- | --- | --- |
| CCC(N1CCOC1=O)S(=O)(=O)c1ccc(C)cc1 (centres undefined) | – | 23.1 µM [falling, partial curve] | – |
| O=C(Cn1nnc(-c2ccc(S(=O)(=O)N3CCCC3)cc2)n1)NCC1CCCO1 (centres undefined) | -40.6% | 0.00461 µM [rising, full curve, poor fit] | 0.82 µM [falling, full curve, poor fit] |
| Cc1cc(C)n2nc(SCC(=O)N(CCC#N)c3ccc(F)cc3)nc2n1 | 2.98% | 16.4 µM [rising, single point] | – |
| CC(=O)C(/C=N/c1cc(-c2ccc(C)cc2)nn1-c1ccccc1)=C(\C)O | 21.7% | 0.231 µM [rising, partial curve, poor fit] | – |
| NC(=O)COc1ccc(/C=N/NS(=O)(=O)c2ccccc2)cc1 | -5.7% | – | – |
| Cc1cc(=O)[nH]c(SCC2(O)C3CC4CC(C3)CC2C4)n1 (centres undefined) | – | 20.6 µM [falling, partial curve] | – |
| Cc1nnc(SCC(=O)N2c3ccccc3C(C)(c3ccccc3)CC2(C)C)s1 (centres undefined) | -1.59% | 3.26 µM [falling, single point] | 4.61 µM [falling, single point] |
| O=C(CNC(=O)c1ccco1)OCC(=O)c1ccc2c(c1)CCCC2 | 28.6% | 0.82 µM [rising, full curve, poor fit] | – |
| Cc1nn(-c2ccccc2)c(C)c1NC(=O)COC(=O)c1cc(Cl)ccc1O | -18.7% | 6.51 µM [falling, partial curve, poor fit] | – |
| CCC1(CC)C(=O)N(C)C(=O)NC1=Nc1ccccc1 | 10.8% | 13 µM [falling, partial curve, poor fit] | – |
| CC(C)CNC(=O)CC(NCC(C)C)C(=O)O (centres undefined) | -43.3% | – | 8.2 µM [falling, partial curve] |
| C/C(CC(=O)Nc1ccc2ccccc2c1)=N\NC(=O)c1ccc(O)c(O)c1 | -3.04% | 29.1 µM [falling, single point] | – |
| O=C(C(Cl)Cl)N1c2ccccc2OCC1c1ccccc1 (centres undefined) | – | 29.1 µM [falling, single point] | – |
| CN1CCN(S(=O)(=O)c2ccc(Oc3ccc(F)c(Cl)c3)nc2)CC1 | -1.5% | 0.58 µM [falling, single point] | – |
| Nc1nnc(SCC(=O)N2CCN(c3ccccc3)CC2)s1 | 3.87% | – | – |
| CCn1cc(CN2N=C(C)CC2c2ccccc2)c(C)n1 (centres undefined) | – | 29.1 µM [rising, single point] | – |
| COc1ccc(-n2nc(C(=O)NCC(=O)N3CCN(c4ccccc4)CC3)c3ccccc3c2=O)cc1OC | 0.794% | – | 6.51 µM [rising, single point] |
| O=C(NCc1ccc2c(c1)OCO2)c1ccncc1 | 21.7% | 20.6 µM [rising, single point] | – |
| COc1ccc(C(C)NC(=O)c2ccc(Cl)cc2)cc1OC (centres undefined) | 4.01% | – | 6.51 µM [rising, single point] |
| CC[N+](C)(CC)CCOC(=O)C(O)(c1ccccc1)C1CCCCC1 (centres undefined) | – | 0.0326 µM [rising, full curve, poor fit] | 0.731 µM [rising, full curve, poor fit] |
| COC(=O)c1c(NC(=O)CSc2nnnn2-c2ccccc2)sc2c1CCCC2 | 2.17% | – | – |

13 compounds from above, ordered by molar mass, smallest number first:

| SMILES | cell number change | AC50 [1] | AC50 [2] |
| --- | --- | --- | --- |
| O=C(NCc1ccc2c(c1)OCO2)c1ccncc1 | 21.7% | 20.6 µM [rising, single point] | – |
| CCC1(CC)C(=O)N(C)C(=O)NC1=Nc1ccccc1 | 10.8% | 13 µM [falling, partial curve, poor fit] | – |
| O=C(C(Cl)Cl)N1c2ccccc2OCC1c1ccccc1 (centres undefined) | – | 29.1 µM [falling, single point] | – |
| Cc1nc(NC(=O)CSc2nnc(C3CC3)n2C)sc1C | -12.4% | – | – |
| NC(=O)COc1ccc(/C=N/NS(=O)(=O)c2ccccc2)cc1 | -5.7% | – | – |
| Nc1nnc(SCC(=O)N2CCN(c3ccccc3)CC2)s1 | 3.87% | – | – |
| CC(=O)C(/C=N/c1cc(-c2ccc(C)cc2)nn1-c1ccccc1)=C(\C)O | 21.7% | 0.231 µM [rising, partial curve, poor fit] | – |
| COc1ccc(NC(=S)N2CCC(Cc3ccccc3)CC2)cc1OC | – | 29.1 µM [falling, single point] | – |
| C/C(CC(=O)Nc1ccc2ccccc2c1)=N\NC(=O)c1ccc(O)c(O)c1 | -3.04% | 29.1 µM [falling, single point] | – |
| Cc1cc(C)n2nc(SCC(=O)N(CCC#N)c3ccc(F)cc3)nc2n1 | 2.98% | 16.4 µM [rising, single point] | – |
| Cc1nnc(SCC(=O)N2c3ccccc3C(C)(c3ccccc3)CC2(C)C)s1 (centres undefined) | -1.59% | 3.26 µM [falling, single point] | 4.61 µM [falling, single point] |
| COC(=O)c1c(NC(=O)CSc2nnnn2-c2ccccc2)sc2c1CCCC2 | 2.17% | – | – |
| COc1ccc(-n2nc(C(=O)NCC(=O)N3CCN(c4ccccc4)CC3)c3ccccc3c2=O)cc1OC | 0.794% | – | 6.51 µM [rising, single point] |

The listing continues.

| SMILES | cell number change | AC50 [1] | AC50 [2] |
| --- | --- | --- | --- |
| CCOC(=O)C1CCCN(C(=O)CCc2nc3sc4c(c3c(=O)[nH]2)CCCC4)C1 (centres undefined) | 14.7% | 11.6 µM [rising, partial curve, poor fit] | – |
| COc1cc2nc(C3CCC3)n(NC(=O)C3CCCC(OC)C3)c(=O)c2cc1OC (centres undefined) | 1.26% | 4.61 µM [falling, single point] | – |
| COC(=O)c1ccccc1S(=O)(=O)Oc1ccc(-c2ccc(C(=O)O)cc2)cc1 | -3.85% | – | – |
| CC1CN(C(=O)c2ccc(S(=O)(=O)Nc3ccccc3F)cc2)CC(C)O1 (centres undefined) | 6.83% | – | – |
| COc1ccc(C(=O)CSc2nnc(CNC(=O)c3ccc(OC)cc3)n2C)cc1 | – | 2.06 µM [rising, partial curve] | 1.84 µM [rising, single point] |
| CC(=O)Nc1ccc(C(=O)CSc2nnc(Cc3ccccc3)o2)cc1 | – | – | 1.46 µM [rising, partial curve, poor fit] |
| CNC(=S)Nc1ccc2[nH]c(=O)[nH]c2c1 | 150% | – | 20.6 µM [rising, partial curve] |
| CC(C)N1CCc2c(sc(NC(=O)C3CCCCC3)c2C(N)=O)C1 | 10.1% | 0.00517 µM [falling, full curve, poor fit] | – |
| O=C(COC(=O)/C=C/c1ccc(OC(F)F)cc1)NC1CCCC1 | 0.423% | 0.116 µM [falling, full curve] | – |
| Nc1ccc(/C=C/c2ccc3ncccc3c2)cc1 | 26.7% | 6.51 µM [rising, partial curve, poor fit] | – |
| NS(=O)(=O)c1ccc(NC(=O)CN2CCc3ccccc32)cc1 | 12.6% | 0.00461 µM [falling, full curve, poor fit] | – |
| Cc1cc(C)cc(C(=O)Nc2nnc(SCC(=O)NCC3CCCO3)s2)c1 (centres undefined) | -36.9% | – | 0.92 µM [falling, full curve, poor fit] |
| O=C(c1cc(-c2ccc(Cl)cc2)on1)N1CCc2ccccc2C1 | 26.5% | 6.51 µM [falling, single point] | – |
| Cc1ccc(C(=O)Nc2ccc(OCc3ccccc3)cc2)cc1[N+](=O)[O-] | 2.59% | 3.66 µM [falling, single point] | – |
| O=C1C=C(c2ccccc2)C(=O)N1Nc1ccccc1 | -11.9% | – | 0.082 µM [falling, full curve, poor fit] |
| COc1ccc(N(CC(=O)NC2CCCCCC2)S(=O)(=O)c2ccccc2)cc1Cl | -11.7% | 29.1 µM [falling, single point] | – |
| c1ccc(-n2nnnc2SCCCSc2nc3ccccc3s2)cc1 | 16.6% | – | – |
| Cc1ccc(SCc2nn(C)c(Cl)c2C=O)cc1 | -22.1% | 7.31 µM [falling, single point] | – |
| COc1ccccc1-c1noc(-c2ccccc2C(=O)Nc2cccnc2)n1 | 0.45% | 0.731 µM [rising, full curve] | 1.3 µM [rising, partial curve] |
| Cc1ccccc1/C=N/NC(=O)Cc1ccc(Cl)cc1 | -35.7% | 29.1 µM [falling, single point] | 29.1 µM [falling, single point] |
| NNC(=O)CCC(=O)Nc1ccccc1 | -0.704% | 0.461 µM [falling, full curve] | 0.326 µM [falling, full curve] |
